Results as given in paper PMC7289602, “Measuring ligand-cell surface receptor affinities with axial line-scanning fluorescence correlation spectroscopy” (eLife, 2020).
No constants are given. Whether binding was seen depends on the method and setting.

Amino acid sequences for entries named in this document (tags omitted). Residues count along the entry.
UniProt O75581, residues 20-1613: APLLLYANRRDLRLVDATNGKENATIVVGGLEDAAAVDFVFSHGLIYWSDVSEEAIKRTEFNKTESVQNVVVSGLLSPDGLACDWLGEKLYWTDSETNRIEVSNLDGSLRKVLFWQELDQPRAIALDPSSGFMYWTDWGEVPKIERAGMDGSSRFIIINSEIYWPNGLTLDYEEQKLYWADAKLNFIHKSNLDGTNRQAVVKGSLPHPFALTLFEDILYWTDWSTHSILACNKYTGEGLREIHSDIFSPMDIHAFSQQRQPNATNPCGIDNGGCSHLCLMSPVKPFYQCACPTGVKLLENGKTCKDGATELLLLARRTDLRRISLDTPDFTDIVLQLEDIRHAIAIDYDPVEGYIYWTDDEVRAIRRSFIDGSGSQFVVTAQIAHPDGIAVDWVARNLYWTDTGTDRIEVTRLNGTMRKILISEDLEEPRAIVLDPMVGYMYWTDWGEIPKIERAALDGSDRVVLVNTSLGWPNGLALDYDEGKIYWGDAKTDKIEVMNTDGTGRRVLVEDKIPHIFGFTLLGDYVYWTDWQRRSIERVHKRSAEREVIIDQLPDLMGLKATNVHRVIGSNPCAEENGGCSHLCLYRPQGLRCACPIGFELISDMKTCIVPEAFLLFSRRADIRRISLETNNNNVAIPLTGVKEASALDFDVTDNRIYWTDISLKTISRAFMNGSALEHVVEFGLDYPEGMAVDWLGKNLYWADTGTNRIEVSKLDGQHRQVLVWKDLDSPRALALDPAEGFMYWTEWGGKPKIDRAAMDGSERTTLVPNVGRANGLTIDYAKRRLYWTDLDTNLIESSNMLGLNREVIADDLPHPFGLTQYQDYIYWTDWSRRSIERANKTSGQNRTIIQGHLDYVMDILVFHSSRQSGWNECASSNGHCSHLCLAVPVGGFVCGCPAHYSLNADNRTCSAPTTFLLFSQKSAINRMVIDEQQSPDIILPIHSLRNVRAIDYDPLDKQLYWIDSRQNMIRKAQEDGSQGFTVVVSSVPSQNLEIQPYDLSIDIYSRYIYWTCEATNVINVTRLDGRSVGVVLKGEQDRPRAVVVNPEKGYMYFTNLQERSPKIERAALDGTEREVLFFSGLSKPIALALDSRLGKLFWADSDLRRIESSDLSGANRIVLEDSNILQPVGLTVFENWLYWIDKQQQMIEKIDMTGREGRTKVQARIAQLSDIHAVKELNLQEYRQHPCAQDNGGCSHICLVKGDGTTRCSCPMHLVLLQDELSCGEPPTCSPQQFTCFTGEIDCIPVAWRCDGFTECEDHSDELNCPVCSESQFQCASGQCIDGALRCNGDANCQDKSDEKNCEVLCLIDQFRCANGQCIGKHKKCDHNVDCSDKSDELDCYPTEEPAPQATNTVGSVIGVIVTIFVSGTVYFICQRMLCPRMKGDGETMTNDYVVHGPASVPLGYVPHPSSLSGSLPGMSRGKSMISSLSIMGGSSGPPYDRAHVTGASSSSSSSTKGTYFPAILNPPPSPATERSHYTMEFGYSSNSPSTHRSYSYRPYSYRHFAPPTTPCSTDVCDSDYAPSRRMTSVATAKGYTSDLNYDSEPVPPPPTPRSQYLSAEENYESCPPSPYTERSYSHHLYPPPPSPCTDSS
UniProt P17677, residues 1-20: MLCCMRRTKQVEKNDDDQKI

Target: LRP6-mCherry, transiently expressed in HEK293T cells (human) (UniProt O75581)
Test: dual-color axial line-scanning fluorescence cross-correlation spectroscopy (axial lsFCS); control: live HEK293T cells transiently co-expressing LRP6-mCherry and Mem-eGFP, at least nine measurements of 60 s

For “Mem-eGFP (membrane marker peptide, the 20 N-terminal residues of neuromodulin, fused to eGFP) (from UniProt P17677 1-20)”, the binding was “no binding”.
